Measured values: patent publication US20220015355A1, “NOVEL CARRIER FLUIDS FOR LIQUID FUNGAL SPORE FORMULATIONS” (priority 2018, published 2022)
Some results were stated once for a whole list of compounds, not compound by compound.

What was measured:
[1] = tested on: P. lilacinum strain 251 spores; assay: spore viability (germination rate on agar) of P. lilacinum spores in carrier fluid after storage at 30° C.; format: cell-based, Purpureocillium lilacinum; conditions: text summary of Table I, approx.
Procedure: (§1) 3 g of P. lilacinum strain 251 pure spore powder were transferred into a formulation vessel (IKA Type DT-20 mixing vessel with dispersion tool for Ultra Turrax) using a sterile spoon. 12 mL of fluid were added into the respective formulation vessel and dispersed using ultra turrax tube drive control for 1 min at 3000 rpm; change direction after 30 sec. After this 2.8 mL were transferred in four sample bottles (Wheaton Serum vial, Type I) leaving little headspace and closed tight using crimpneck caps (Macherey—Nagel type N 13) Afterwards all sample bottles were transferred to an incubator set at 30° C. and stored for a given time.
(§2) In regular intervals a sample was retrieved from the storage location and analyzed for spore viability. Therefore the original samples were thoroughly homogenized. Aliquots of 0.25 g or […] of each sample are transferred into 50 mL falcon tubes. The tubes were filled up to 25 g using a sterile aqueous solution containing 2% Tween 80 and homogenized by vortexing to achieve the first dilution step (1:100 dilution). This dilution is used for further dilution and spotting on agar.
For evaluation of spore germination rate prepare a 1:30000 dilution based on the 1:100 dilution achieved by multiple automated dilution (pipetting robot, 96 well plate). […] At least 200 spores per sample need to be evaluated. […]

[2] = tested on: Isaria fumosorosea spores; assay: spore viability of Isaria fumosorosea spores in carrier fluid after storage at 30° C., Method 1 (germination on agar); format: cell-based; conditions: listed as Table II entry 6
Procedure: as §1, with “Method 1: 1.5 g” for “3 g”, “of Isaria fumosorosea” for “of P. lilacinum strain 251”, “spoon. 13.5” for “spoon. 12”
as §2
For evaluation of spore germination rate a 1:15000 dilution based on the 1:100 dilution achieved by multiple automated dilution (pipetting robot, 96 well plate) was prepared. […]

## COC(C)COC(C)COC(C)CO (centres unmarked) [Dowanol TPM, Tripropylene Glycol monomethyl ether]
[1]
  spore viability after storage for 2 or 3 months, respectively: ≥ 80%
[2]
  spore viability [%] after 7 m (210 d): ≥ 50%
